# Laboratory results published in PubChem BioAssay AID540256 (National Center for Advancing Translational Sciences (NCATS), 2011).
# Hit rate of the full screen: of about 300,000 compounds, about 3,700 (1.2%) were called active. The inconclusive results got no clear call from the source; some entries with a clear call stand among them for comparison. Calls come from the whole dose curve; tested in HEK293 cells. Potencies of inconclusive entries are doubtful fits and often do not repeat.
# Experiment: qHTS for Inhibitors of binding or entry into cells for Lassa Virus; note: nearly all actives have a fitted effect of over 50% in size
# Conditions: Lassa virus pseudotype entry inhibition, cell reporter; series mostly up to 37.9 µM
# Potency is the fitted concentration of half-maximal effect.
row,SMILES,Potency
1,c1ccc(CSC2=NNC(c3ccccn3)S2)cc1 (stereo not given),"inconclusive: 11.2 µM [inhibitor, partial curve]"
2,O=C(Cn1ncc2c3ccccc3n(Cc3ccccc3)c2c1=O)NCCc1ccc(Cl)cc1,inactive
3,COCCN(CCOC)S(=O)(=O)c1ccc(C(=O)Nc2sc3c(c2C(N)=O)CCCC3)cc1,"inconclusive: 0.891 µM [inhibitor, partial curve, poor fit]"
4,Clc1ccc(C2=Nn3c(nnc3-c3n[nH]c4c3CCC4)SC2)cc1Cl,"inconclusive: 1.83 µM [inhibitor, full curve, poor fit]"
5,CC(C)S(=O)(=O)c1csc(C(=O)NNC(=O)Nc2ccccc2)c1Cl,inactive
6,CCOC(=O)c1c(-c2ccccc2)csc1NC(=O)CCN1CCOCC1,"inconclusive: 20.6 µM [inhibitor, single point]"
7,COCCCNC(=O)/C=C/c1ccc(Cl)cc1Cl,"inconclusive: 3.26 µM [activator, partial curve, poor fit]"
8,CN1CCN(c2ccc(NC(=O)c3cccc(OCc4ccccc4)c3)cc2)CC1,inactive
9,Cc1cc2ccccn2c1C(=O)Nc1cccc(Cl)c1,inactive
10,Cn1nc(C(F)(F)F)c(/C=N/OC(=O)c2ccc(Cl)cc2)c1Cl,"inconclusive: 14.6 µM [activator, partial curve]"
11,Cc1c(C(=O)N/N=C/c2ccccc2)[nH]c2c([N+](=O)[O-])cccc12,"inconclusive: 0.562 µM [inhibitor, full curve, poor fit]"
12,CC(CCc1ccccc1)NC(=O)CSc1n[nH]c(-c2ccccc2)n1 (stereo not given),"inconclusive: 7.08 µM [inhibitor, partial curve, poor fit]"
13,Cc1ccc2ccc3cc(C(=O)N4CCN(c5ccccc5F)CC4)nc3c2[nH]1,inactive
14,COc1cc(OC)cc(C(=O)NCCCNC(=O)c2ccccn2)c1,inactive
15,CC(C)C1CC(=O)NC(SCC(=O)Nc2ccc(Br)cc2)=C1C#N (stereo not given),"inconclusive: 2.82 µM [inhibitor, partial curve, poor fit]"
16,Cc1ccc(C(=O)N(Cc2ccc(N(C)C)cc2)CC2CCCO2)cc1 (stereo not given),"inconclusive: 7.94 µM [inhibitor, partial curve, poor fit]"
17,Cc1nn(C(C)C(=O)NCc2ccc(OC(C)C)cc2)c(=O)c2c1sc1ccccc12 (stereo not given),inactive
18,O=C(Nc1ccc2c(c1)CCC2)Nc1ccccc1Cl,"inconclusive: 11.2 µM [inhibitor, single point]"
19,O=C(/C=C/c1ccccc1)N1CCCN(C(=O)/C=C/c2ccccc2)CC1,inactive
20,O=C(CCN=C1NS(=O)(=O)c2ccccc21)OCC(=O)c1ccccc1Cl,"inconclusive: 35.5 µM [activator, single point]"

# Some of the entries so far, bar-delimited:
row | SMILES | Potency
4 | Clc1ccc(C2=Nn3c(nnc3-c3n[nH]c4c3CCC4)SC2)cc1Cl | inconclusive: 1.83 µM [inhibitor, full curve, poor fit]
20 | O=C(CCN=C1NS(=O)(=O)c2ccccc21)OCC(=O)c1ccccc1Cl | inconclusive: 35.5 µM [activator, single point]
